PubChem BioAssay AID1671195 | Yale University – 2021
Test: 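Regulators of LDL receptor activity judged by labelled LDL uptake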 (primary screen). Cell system: human Huh7 hepatoma cells. Reagent: siRNA pool against human genes, 18 nM. Timing: about 2 to 2.5 days of knockdown, then 8 h LDL uptake. Treatment: DiI-labelled LDL at 30 µg/ml for 8 h, in lipoprotein-deficient serum medium. Detection: 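Per-cell DiI-LDL intensity by automated imaging; well means scaled to the plate median and given as a robust z-score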. Scale: robust z-score: higher = more LDL uptake after knockdown. Call rule: 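a gene counts as active if at least two replicate z-scores exceed ±2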.
Here is an unselected part of about 22,000 reagents tested. About 1,510 of all reagents (6.9%) were called active. 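Active includes knockdowns raising or lowering LDL uptake; positive z-scores mean more uptake, negative mean less.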

gene	robust z-score, replicate 1	robust z-score, replicate 2	robust z-score, replicate 3	Outcome
GPA33	1.1	0.488	0.947	inactive
TEX28	0.127	-0.352	-0.416	inactive
TMEM150B	-1.35	-1.3	-1.16	inactive
SEC14L1	0.868	2.17	-0.467	inactive
SNF8	-0.402	1.05	-0.962	inactive
RPN1	-1.16	-1.46	-0.636	inactive
CACNA2D1	2.4	1.58	1.96	active
PYHIN1	2.87	1.83	2.68	active
H1-5	1.91	1.14	1.69	inactive
CGRRF1	-0.0899	-0.669	0.488	inactive
MAK16	0.611	0.18	0.854	inactive
XAGE2	-0.244	0.553	-0.294	inactive
OR5F1	-0.341	-0.458	-0.205	inactive
KLB	-0.893	-0.897	-0.974	inactive
CROCC	-0.146	1.92	0.331	inactive
SPTLC1	-0.717	-0.543	-0.308	inactive
DEF6	-0.813	-2.42	-0.48	inactive
PROKR1	0.109	-0.683	-0.0596	inactive
IL10RB	0.104	-0.377	0.0173	inactive
RPS6KA5	-0.221	-0.342	-0.704	inactive
ADCY7	-0.391	-0.135	-0.713	inactive
LRRC63	1.92	1.7	1.73	inactive
RTN1	-0.619	-0.84	-1.21	inactive
LOC286327 (retired record)	-0.981	-0.968	-0.986	inactive
XKR3	-0.494	-0.506	-0.826	inactive
FEZ1	-2.04	-1.63	0.09	inactive
ZNF878	0.462	0.528	0.764	inactive
LRRC49	-1.64	-1.01	0.281	inactive
TPRX1	-0.911	-1.28	-1.22	inactive
FKBPL	0.52	0.791	0.753	inactive
TP53RK	0.501	1.58	0.302	inactive
STX17-DT	-0.556	-0.0903	0.000173	inactive
LOC388545 (retired record)	1.57	1.66	1.73	inactive
TPD52	-1.02	-0.523	-0.328	inactive
TEX21P	-0.918	-0.839	-0.79	inactive
PPP2CA	0.00137	-1.26	-0.332	inactive
SGK3	3.41	1.53	3.53	active
CDH5	-1.16	-0.346	0.816	inactive
CCL25	2.29	2.55	2.41	active
ALKAL2	0.846	0.993	0.282	inactive
OR10Z1	0.63	0.261	0.727	inactive
TRPC5	1.56	1.84	2.11	inactive
BCHE	-0.273	0.753	0.295	inactive
KRT19	0.297	0.674	-0.03	inactive
LRRC73	1.59	1.69	1.44	inactive
TGM7	-0.822	-0.938	-0.439	inactive
TUBB	-1.47	-1.34	-1.02	inactive
BTN2A2	-0.0768	-0.299	-0.364	inactive
LOC440679 (retired record)	-2.34	-1.88	-2	active
NMNAT2	-1.65	-1.39	-1.23	inactive
PWWP2B	0.278	0.605	0.853	inactive
SHMT1	0.568	1.67	2.36	inactive
MPHOSPH8	0.528	1.6	0.274	inactive
LINC01118	-0.538	-0.584	-0.455	inactive
ABRA	-0.387	0.572	-0.5	inactive
HERC2P3	-0.0613	-0.23	-0.255	inactive
PRDX6	-2.79	-2.74	-2.77	active
CAP2	-0.436	0.221	-0.733	inactive
OLFM4	-0.115	0.334	-0.194	inactive
HS1BP3	-0.519	-0.81	-0.214	inactive
LOC442022 (retired record)	-1.4	-1.25	-1.42	inactive
RRP15	0.509	1.11	-1.23	inactive
AAGAB	-0.587	-1.01	-1.21	inactive
PEX26	-0.127	-0.107	0.418	inactive
TP73	1.07	1.24	1.09	inactive
CPNE6	-0.0725	-0.0103	0.134	inactive
TLCD1	-0.682	0.0699	0.414	inactive
LRRC41	2.03	2.17	1.02	active

Single entries from above:
Value of SPTLC1 under “robust z-score, replicate 2”: -0.543
Under “Outcome”, LINC01118 has inactive
Under “robust z-score, replicate 3”, LRRC63 has 1.73
Under “robust z-score, replicate 3”, CCL25 is entered as 2.41
